Values from PubChem BioAssay AID686938 (Drosophila RNAi Screening Center, 2013).
The screen tested about 23,000 reagents; below is a random part of those that have a named target and a result. Of all reagents, 75 (0.33%) were called active. 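Raw plate signals without normalisation; calls rest on plate z-scores that were not deposited; ratio present for only 364 wells.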 Not stated in the record: the dose of the treatment.

Assay: 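Knock-downs reducing store-operated calcium influx in Drosophila cells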 (primary screen)
Cell system: Drosophila S2R+ cells
Knock-down reagent: long dsRNA against Drosophila genes, about 0.25 µg dsRNA per well, roughly 10,000 cells
Duration: 5 days of knock-down before the calcium assay
Conditions: thapsigargin (SERCA pump blocker) to empty calcium stores; entry signal taken 4 min after adding it
Measured: 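Per-well fluo-4 fluorescence in two replicates, unnormalised, measured in resting cells and 4 min after store depletion by the SERCA blocker thapsigargin; ratio of the two present in few wells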
Scale: calcium entry signal: higher = stronger calcium signal after store depletion; entry to resting ratio: higher = more calcium entry relative to resting level; resting calcium signal: higher = higher resting calcium signal
Units: calcium entry signal in fluorescence units; resting calcium signal in fluorescence units
Active means: 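Hit if the duplicate-averaged plate z-score for entry over resting signal is under −3; wells with weak total dye signal (Fmax z < −2) or more than 5 off-targets removed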
Meaning of the calls: active = strongly reduced calcium entry; inactive = no strong reduction

Taf12L [DRSC00467]
- calcium entry signal, replicate 1: 3.02e7
- calcium entry signal, replicate 2: 3.28e7
- resting calcium signal, replicate 1: 1.45e7
- resting calcium signal, replicate 2: 1.46e7
- Outcome: inactive

lwr [DRSC00828]
- calcium entry signal, replicate 1: 2.74e7
- resting calcium signal, replicate 1: 1.76e7
- Outcome: inactive

REPTOR-BP [DRSC02683]
- calcium entry signal, replicate 1: 2.69e7
- calcium entry signal, replicate 2: 3.41e7
- resting calcium signal, replicate 1: 1.45e7
- resting calcium signal, replicate 2: 1.37e7
- Outcome: inactive

CG2681 [DRSC18464]
- calcium entry signal, replicate 1: 3.73e7
- calcium entry signal, replicate 2: 4.47e7
- resting calcium signal, replicate 1: 1.84e7
- resting calcium signal, replicate 2: 1.99e7
- Outcome: inactive

CtsL4 [DRSC02849]
- calcium entry signal, replicate 1: 3.50e7
- calcium entry signal, replicate 2: 5.03e7
- resting calcium signal, replicate 1: 1.76e7
- resting calcium signal, replicate 2: 2.06e7
- Outcome: inactive

CG34049 [DRSC00104]
- calcium entry signal, replicate 1: 1.77e7
- calcium entry signal, replicate 2: 2.44e7
- resting calcium signal, replicate 1: 1.01e7
- resting calcium signal, replicate 2: 1.02e7
- Outcome: inactive

CG17917 [DRSC12570]
- calcium entry signal, replicate 1: 3.24e7
- calcium entry signal, replicate 2: 2.99e7
- resting calcium signal, replicate 1: 1.69e7
- resting calcium signal, replicate 2: 1.42e7
- Outcome: inactive

Polr2B [DRSC16831]
- calcium entry signal, replicate 1: 1.32e7
- calcium entry signal, replicate 2: 1.48e7
- resting calcium signal, replicate 1: 8.41e6
- resting calcium signal, replicate 2: 8.48e6
- Outcome: inactive

Osi21 [DRSC02408]
- calcium entry signal, replicate 1: 3.20e7
- calcium entry signal, replicate 2: 4.59e7
- resting calcium signal, replicate 1: 1.61e7
- resting calcium signal, replicate 2: 1.88e7
- Outcome: inactive

CG13101 [DRSC02201]
- calcium entry signal, replicate 1: 4.97e7
- resting calcium signal, replicate 1: 2.30e7
- Outcome: inactive

CG4709 [DRSC02772]
- calcium entry signal, replicate 1: 5.18e7
- resting calcium signal, replicate 1: 2.62e7
- Outcome: inactive

ey [DRSC17173]
- calcium entry signal, replicate 1: 4.12e7
- calcium entry signal, replicate 2: 5.65e7
- entry to resting ratio: 1.9
- resting calcium signal, replicate 1: 2.12e7
- resting calcium signal, replicate 2: 2.48e7
- Outcome: inactive

rst [DRSC17243]
- calcium entry signal, replicate 1: 4.60e7
- calcium entry signal, replicate 2: 4.76e7
- resting calcium signal, replicate 1: 2.45e7
- resting calcium signal, replicate 2: 2.11e7
- Outcome: inactive

rst [DRSC18828]
- calcium entry signal, replicate 1: 5.03e7
- calcium entry signal, replicate 2: 6.47e7
- entry to resting ratio: 2.1
- resting calcium signal, replicate 1: 2.40e7
- resting calcium signal, replicate 2: 2.80e7
- Outcome: inactive

GstT3 [DRSC20541]
- calcium entry signal, replicate 1: 4.84e7
- calcium entry signal, replicate 2: 5.17e7
- resting calcium signal, replicate 1: 2.30e7
- resting calcium signal, replicate 2: 2.17e7
- Outcome: inactive

His3.3B [DRSC17773]
- calcium entry signal, replicate 1: 2.54e7
- calcium entry signal, replicate 2: 3.96e7
- resting calcium signal, replicate 1: 1.28e7
- resting calcium signal, replicate 2: 1.77e7
- Outcome: inactive

His3.3B [DRSC18673]
- calcium entry signal, replicate 1: 1.62e7
- calcium entry signal, replicate 2: 2.44e7
- resting calcium signal, replicate 1: 9.75e6
- resting calcium signal, replicate 2: 1.28e7
- Outcome: inactive

Mical [DRSC14349]
- calcium entry signal, replicate 1: 2.26e7
- calcium entry signal, replicate 2: 2.63e7
- resting calcium signal, replicate 1: 1.17e7
- resting calcium signal, replicate 2: 1.47e7
- Outcome: inactive

Mical [DRSC14351]
- calcium entry signal, replicate 1: 2.17e7
- calcium entry signal, replicate 2: 2.38e7
- resting calcium signal, replicate 1: 1.34e7
- resting calcium signal, replicate 2: 1.28e7
- Outcome: inactive

Mical [DRSC15365]
- calcium entry signal, replicate 1: 2.17e7
- calcium entry signal, replicate 2: 2.37e7
- resting calcium signal, replicate 1: 1.18e7
- resting calcium signal, replicate 2: 1.32e7
- Outcome: inactive

Mical [DRSC15366]
- calcium entry signal, replicate 1: 2.18e7
- calcium entry signal, replicate 2: 2.16e7
- resting calcium signal, replicate 1: 1.30e7
- resting calcium signal, replicate 2: 1.19e7
- Outcome: inactive

As entered above.
CtsL4 [DRSC02849], resting calcium signal, replicate 2: 2.06e7
Entry of His3.3B [DRSC18673] under “calcium entry signal, replicate 2”: 2.44e7
